Data from PMC9859756.
No constants are given. Whether binding was seen depends on the method and setting. In cells and extracts the contact can be indirect. Some results given as binding are weak or reduced against the parent protein; the word gives no strength.

Molecular target: T1, human ZBP1 (transient expression, Extended Data Fig. 2c) (human) (UniProt Q9H171)
T1 sequence: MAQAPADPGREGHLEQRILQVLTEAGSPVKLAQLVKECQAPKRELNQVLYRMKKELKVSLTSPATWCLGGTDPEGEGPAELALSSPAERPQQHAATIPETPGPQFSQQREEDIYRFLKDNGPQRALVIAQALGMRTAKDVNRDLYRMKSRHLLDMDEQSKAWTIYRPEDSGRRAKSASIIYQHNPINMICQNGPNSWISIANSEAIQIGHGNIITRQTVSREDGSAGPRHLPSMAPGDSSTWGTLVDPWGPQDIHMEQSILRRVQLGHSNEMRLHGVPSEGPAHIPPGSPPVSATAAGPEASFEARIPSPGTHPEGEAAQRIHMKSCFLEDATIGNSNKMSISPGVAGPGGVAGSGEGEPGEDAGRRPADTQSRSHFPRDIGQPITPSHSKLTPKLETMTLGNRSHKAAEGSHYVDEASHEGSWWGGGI
Test: co-IP; HEK 293T cells transfected with the indicated FLAG or untagged constructs; lysates immunoprecipitated with anti-FLAG antibody, immunoblot (Extended Data Fig. 2c)

binding: binds
B1: human OASL (transient expression, Extended Data Fig. 2c) (protein, UniProt Q15646 1-514)
chain: MALMQELYSTPASRLDSFVAQWLQPHREWKEEVLDAVRTVEEFLRQEHFQGKRGLDQDVRVLKVVKVGSFGNGTVLRSTREVELVAFLSCFHSFQEAAKHHKDVLRLIWKTMWQSQDLLDLGLEDLRMEQRVPDALVFTIQTRGTAEPITVTIVPAYRALGPSLPNSQPPPEVYVSLIKACGGPGNFCPSFSELQRNFVKHRPTKLKSLLRLVKHWYQQYVKARSPRANLPPLYALELLTIYAWEMGTEEDENFMLDEGFTTVMDLLLEYEVICIYWTKYYTLHNAIIEDCVRKQLKKERPIILDPADPTLNVAEGYRWDIVAQRASQCLKQDCCYDNRENPISSWNVKRARDIHLTVEQRGYPDFNLIVNPYEPIRKVKEKIRRTRGYSGLQRLSFQVPGSERQLLSSRCSLAKYGIFSHTHIYLLETIPSEIQVFVKNPDGGSYAYAINPNSFILGLKQQIEDQQGLPKKQQQLEFQGQVLQDWLGLGIYGIQDSDTLILSKKKGEALFPAS
